From patent publication US8143212B2 (Vicuron Pharmaceuticals Inc., priority 2002, dated 2012) come the findings set out here.

Each structure is given as a SMILES string.

This data set relates to N,N′-diacetyl-Lys-D-Ala-D-Ala. Briefly: Isothermal titration calorimetry of tri-peptide binding, with and without HSA (Table 39).

Where the note is “T 10 ° C., [HSA] 0 μM”, `CN[C@H](CC(C)C)C(=O)N[C@H]1C(=O)N[C@@H](CC(N)=O)C(=O)N[C@H]2C(=O)N[C@H]3C(=O)N[C@H](C(=O)N[C@H](C(=O)O)c4cc(O)cc(O)c4-c4cc3ccc4O)[C@H](O)c3ccc(c(Cl)c3)Oc3cc2cc(c3O[C@@H]2O[C@H](CO)[C@@H](O)[C@H](O)[C@H]2O[C@H]2C[C@](C)(N)[C@H](O)[C@H](C)O2)Oc2ccc(cc2Cl)[C@H]1O` [Vancomycin] came in with a ΔH of -9.49 kcal/mol and a ΔS of −6.80 eu. For the setting “T 25 ° C., with HSA 513 μM”, this compound had a ΔH of -10.09 kcal/mol.
